# Results deposited as PubChem BioAssay AID1159596 (NIAID, 2016)
# Test: 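Which toll-like receptor signalling genes are needed for TNF promoter activity driven by peptidoglycan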 (primary screen)
# Cells: human THP1 B5 monocytic reporter cells made macrophage-like with PMA
# Knock-down reagent: single siRNA against human genes
# Time to read-out: assayed 48 to 72 hours after siRNA transfection; peptidoglycan stimulation lasted 4 hours
# Challenge: Staphylococcus aureus peptidoglycan for 4 hours; dose not given
# Measurement: 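Mean over replicate screens of a robust z per siRNA from the dual luciferase TNF promoter reporter after 4 h peptidoglycan, median/MAD normalised, relative to negative controls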
# Reading the numbers: TNF reporter z-score: higher = stronger TNF promoter reporter response to peptidoglycan
# Rule for the call: In these data the active calls have TNF reporter z-score, replicate mean at about -1.5 or lower, or at about 1.5 or higher
# Meaning of the calls: active = reporter shifted beyond cut (either direction); inactive = reporter near control level
# Here is a random part of 756 reagents tested. Of all reagents, 143 (19%) were called active. 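Active means the reporter moved past about ±1.5 in either direction; scores are per single siRNA, not per gene; peptidoglycan dose not given.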 A number with no mark means an inactive call. Reagents against one gene are numbered here. The record does not give: the amount of reagent.
The opening 4 records, ahead of the listing:
target,reagent no.,"TNF reporter z-score, replicate mean"
MAPK3,1,-1.1
MAPK3,2,-0.0961
MAPK3,3,-0.674
MAPK3,4,0.389

The listing, from the first entry:
target,reagent no.,"TNF reporter z-score, replicate mean"
MAPK3,1,-1.1
MAPK3,2,-0.0961
MAPK3,3,-0.674
MAPK3,4,0.389
MAPK3,5,-0.413
MAPK3,6,-2.78 (active)
MYD88,1,-4.18 (active)
MYD88,2,-1.84 (active)
MYD88,3,-3.57 (active)
MYD88,4,-1.02
MYD88,5,1.82 (active)
MYD88,6,-1.32
TBK1,1,-0.862
TBK1,2,-0.199
TBK1,3,0.607
TBK1,4,0.675
TBK1,5,-1.06
TBK1,6,-0.085
TBKBP1,1,0.311
TBKBP1,2,0.0689
TBKBP1,3,-0.465
TBKBP1,4,0.822
TBKBP1,5,0.322
TBKBP1,6,-0.823
STAT1,1,-0.312
STAT1,2,0.217
STAT1,3,-2.09 (active)
STAT1,4,-0.607
STAT1,5,1.06
STAT1,6,-1.89 (active)
FOS,1,0.327
FOS,2,0.164
FOS,3,-0.431
FOS,4,0.00486
FOS,5,0.81
FOS,6,-0.0655
MAP3K8,1,-2.01 (active)
MAP3K8,2,-2.5 (active)
MAP3K8,3,-1.39
MAP3K8,4,-1.45
MAP3K8,5,-1.97 (active)
MAP3K8,6,-1.28
ITGAX,1,-0.871
ITGAX,2,0.549
ITGAX,3,-0.474
ITGAX,4,-1.45
ITGAX,5,-0.857
ITGAX,6,-1.63 (active)
